From article PMC7084607

Target: T1, OsWUS (rice (Oryza sativa L.)) (UniProt Q7XM13)
T1 sequence: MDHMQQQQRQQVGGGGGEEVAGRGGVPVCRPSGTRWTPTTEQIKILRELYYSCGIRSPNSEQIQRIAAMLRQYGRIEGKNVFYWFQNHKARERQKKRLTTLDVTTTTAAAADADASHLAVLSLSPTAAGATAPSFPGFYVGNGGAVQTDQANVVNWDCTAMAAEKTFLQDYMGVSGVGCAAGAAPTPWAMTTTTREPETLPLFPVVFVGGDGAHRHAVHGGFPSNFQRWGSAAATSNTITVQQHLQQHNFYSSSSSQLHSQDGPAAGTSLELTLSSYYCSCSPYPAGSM
Experiment: two-hybrid; in yeast cells (Supplementary Figure S3); constructs and orientation not told

binding: binds
Substance: OsPUB4 (rice (Oryza sativa L.))

Results are given in words; binding and its absence hold for the method and conditions named. Binding calls can cover weak binding; strength is not graded here.
